According to publication PMC4045890:
No constants are given. Whether binding was seen depends on the method and setting. In cells and extracts the contact can be indirect. Binding can be weak; no strength is given. Tags and fused reporters may be left off the sequences shown.

Experiments:
[1] = molecular target: T1, VN-tagged Fep1 (S. pombe) (UniProt Q10134); test: split reporter; BiFC with Venus fragments VN and VC in living S. pombe cells, iron-starved and iron-replete; fluorescence microscopy with Hoechst stain
T1 sequence: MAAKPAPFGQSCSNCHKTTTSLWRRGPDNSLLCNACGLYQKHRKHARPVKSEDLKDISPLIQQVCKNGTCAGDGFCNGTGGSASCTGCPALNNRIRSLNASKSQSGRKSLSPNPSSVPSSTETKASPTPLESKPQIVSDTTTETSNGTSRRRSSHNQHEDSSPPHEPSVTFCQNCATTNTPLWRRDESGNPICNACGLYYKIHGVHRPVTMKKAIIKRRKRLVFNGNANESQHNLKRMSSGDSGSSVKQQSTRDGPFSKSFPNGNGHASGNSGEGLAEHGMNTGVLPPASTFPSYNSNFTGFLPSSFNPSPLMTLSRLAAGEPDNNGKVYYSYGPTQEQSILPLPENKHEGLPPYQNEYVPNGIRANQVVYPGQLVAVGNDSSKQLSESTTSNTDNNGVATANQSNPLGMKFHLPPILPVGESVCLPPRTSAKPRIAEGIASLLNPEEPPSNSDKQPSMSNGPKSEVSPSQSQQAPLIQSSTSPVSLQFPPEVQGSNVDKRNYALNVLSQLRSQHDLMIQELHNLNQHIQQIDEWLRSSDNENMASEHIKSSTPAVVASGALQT

[2] = molecular target: T2, TAP-tagged Fep1 (S. pombe) (UniProt Q10134); test: co-IP; TAP pull-down: whole-cell extracts (~2.7 mg protein) of S. pombe cells co-expressing the tagged proteins, treated with Dip (250 µM) or FeCl3 (100 µM) for 30 min; IgG-Sepharose 6 Fast-Flow beads hold TAP or TAP-Fep1, 18 h at 4°C; lysis buffer 10 mM Tris-HCl pH 7.9, 0.1% Triton X-100, 0.5 mM EDTA, 20% glycerol, 100 mM NaCl; immunoblot with anti-Myc, anti-GFP and anti-α-tubulin
T2 sequence: T1 sequence

Row | binding [1] | binding [2] | Substance
1 | binds | – | VC-tagged Fra2 (S. pombe)
2 | – | binds | Myc13-tagged Fra2 (S. pombe)
3 | – | no binding | α-tubulin (S. pombe (endogenous in S. pombe cells))
